Data from the supplement of paper PMC8728848.
The list shows a part of the results.

Assays:
Assay in all cases: glycan array binding signal (z-score within array); higher = stronger binding
Conditions in all cases: glycan notation: IUPAC condensed, linker removed
Gal(b1-2)Gal = target: Gal(b1-2)Gal
Outline: (§1)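 Arrays were curated from the Consortium for Functional Glycomics database, 3228 in total, and kept only where the protein sequence was available. Binding is expressed as a within-array Z-score. This score was averaged across arrays of the same protein sequence at different concentrations or buffers and across linkers, and negative values can be read as non-binding.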

Gal(b1-3)Gal = target: Gal(b1-3)Gal
Outline: as §1

Gal(b1-3)Gal(b1-4)GlcNAc = target: Gal(b1-3)Gal(b1-4)GlcNAc
Outline: as §1

Gal(b1-3)GalNAc = target: Gal(b1-3)GalNAc
Outline: as §1

[1] = target: Gal(b1-3)GalNAc(a1-3)[Fuc(a1-2)]Gal(b1-4)Glc
Outline: as §1

[2] = target: Gal(b1-3)GalNAc(a1-3)[Fuc(a1-2)]Gal(b1-4)GlcNAc
Outline: as §1

Gal(b1-3)GalNAc(b1-3)Gal = target: Gal(b1-3)GalNAc(b1-3)Gal
Outline: as §1

[3] = target: Gal(b1-3)GalNAc(b1-3)Gal(a1-4)Gal(b1-4)Glc
Outline: as §1

[4] = target: Gal(b1-3)GalNAc(b1-4)Gal(b1-4)Glc
Outline: as §1

[5] = target: Gal(b1-3)GalNAc(b1-4)[Neu5Ac(a2-3)]Gal(b1-4)Glc
Outline: as §1

Gal(b1-3)GlcNAc = target: Gal(b1-3)GlcNAc
Outline: as §1

[6] = target: Gal(b1-3)GlcNAc(a1-3)Gal(b1-4)GlcNAc
Outline: as §1

[7] = target: Gal(b1-3)GlcNAc(a1-6)Gal(b1-4)GlcNAc
Outline: as §1

Gal(b1-3)GlcNAc(b1-2)Man = target: Gal(b1-3)GlcNAc(b1-2)Man
Outline: as §1

[8] = target: Gal(b1-3)GlcNAc(b1-2)Man(a1-3)[Gal(b1-3)GlcNAc(b1-2)Man(a1-6)]Man(b1-4)GlcNAc(b1-4)GlcNAc
Outline: as §1

[9] = target: Gal(b1-3)GlcNAc(b1-2)Man(a1-3)[Gal(b1-3)GlcNAc(b1-2)Man(a1-6)]Man(b1-4)GlcNAc(b1-4)[Fuc(a1-6)]GlcNAc
Outline: as §1

[10] = target: Gal(b1-3)GlcNAc(b1-2)Man(a1-3)[GlcNAc(b1-4)][Gal(b1-3)GlcNAc(b1-2)Man(a1-6)]Man(b1-4)GlcNAc(b1-4)GlcNAc
Outline: as §1

[11] = target: Gal(b1-3)GlcNAc(b1-2)[Gal(b1-3)GlcNAc(b1-6)]Man(a1-6)[Gal(b1-3)GlcNAc(b1-2)Man(a1-3)]Man(b1-4)GlcNAc(b1-4)GlcNAc
Outline: as §1

[12] = target: Gal(b1-3)GlcNAc(b1-3)Gal(b1-3)GlcNAc
Outline: as §1

[13] = target: Gal(b1-3)GlcNAc(b1-3)Gal(b1-4)Glc
Outline: as §1

[14] = target: Gal(b1-3)GlcNAc(b1-3)Gal(b1-4)GlcNAc
Outline: as §1

[15] = target: Gal(b1-3)GlcNAc(b1-3)Gal(b1-4)GlcNAc(b1-2)Man(a1-3)[Gal(b1-3)GlcNAc(b1-3)Gal(b1-4)GlcNAc(b1-2)Man(a1-6)]Man(b1-4)GlcNAc(b1-4)GlcNAc
Outline: as §1

[16] = target: Gal(b1-3)GlcNAc(b1-3)Gal(b1-4)GlcNAc(b1-2)[Gal(b1-3)GlcNAc(b1-3)Gal(b1-4)GlcNAc(b1-6)]Man(a1-6)[Gal(b1-3)GlcNAc(b1-3)Gal(b1-4)GlcNAc(b1-2)Man(a1-3)]Man(b1-4)GlcNAc(b1-4)[Fuc(a1-6)]GlcNAc
Outline: as §1

[17] = target: Gal(b1-3)GlcNAc(b1-3)Gal(b1-4)GlcNAc(b1-3)Gal(b1-4)GlcNAc(b1-2)[Gal(b1-3)GlcNAc(b1-3)Gal(b1-4)GlcNAc(b1-3)Gal(b1-4)GlcNAc(b1-6)]Man(a1-6)[Gal(b1-3)GlcNAc(b1-3)Gal(b1-4)GlcNAc(b1-3)Gal(b1-4)GlcNAc(b1-2)Man(a1-3)]Man(b1-4)GlcNAc(b1-4)[Fuc(a1-6)]GlcNAc
Outline: as §1

[18] = target: Gal(b1-3)GlcNAc(b1-3)Gal(b1-4)GlcNAc(b1-6)[Gal(b1-3)GlcNAc(b1-3)]Gal(b1-4)Glc
Outline: as §1

[19] = target: Gal(b1-3)GlcNAc(b1-3)Gal(b1-4)[Fuc(a1-3)]GlcNAc
Outline: as §1

[20] = target: Gal(b1-3)GlcNAc(b1-3)Gal(b1-4)[Fuc(a1-3)]GlcNAc(b1-6)[Gal(b1-3)GlcNAc(b1-3)]Gal(b1-4)Glc
Outline: as §1

[21] = target: Gal(b1-3)GlcNAc(b1-3)GalNAc
Outline: as §1

[22] = target: Gal(b1-3)GlcNAc(b1-6)Gal(b1-4)GlcNAc
Outline: as §1

[23] = target: Gal(b1-3)GlcNAc(b1-6)GalNAc
Outline: as §1

[24] = target: Gal(b1-3)GlcNAc(b1-6)[Gal(b1-3)]GalNAc
Outline: as §1

Gal(b1-3)GlcNAc6S = target: Gal(b1-3)GlcNAc6S
Outline: as §1

[25] = target: Gal(b1-3)[Fuc(a1-4)]GlcNAc
Outline: as §1

[26] = target: Gal(b1-3)[Fuc(a1-4)]GlcNAc(b1-2)Man
Outline: as §1

[27] = target: Gal(b1-3)[Fuc(a1-4)]GlcNAc(b1-2)Man(a1-3)[Gal(b1-3)[Fuc(a1-4)]GlcNAc(b1-2)Man(a1-6)]Man(b1-4)GlcNAc(b1-4)[Fuc(a1-6)]GlcNAc
Outline: as §1

[28] = target: Gal(b1-3)[Fuc(a1-4)]GlcNAc(b1-3)Gal(b1-3)[Fuc(a1-4)]GlcNAc
Outline: as §1

[29] = target: Gal(b1-3)[Fuc(a1-4)]GlcNAc(b1-3)Gal(b1-4)[Fuc(a1-3)]GlcNAc
Outline: as §1

[30] = target: Gal(b1-3)[Fuc(a1-4)]GlcNAc(b1-6)GalNAc
Outline: as §1

[31] = target: Gal(b1-3)[GlcNAc(b1-6)]GalNAc
Outline: as §1

[32] = target: Gal(b1-3)[Neu5Ac(a2-6)]GalNAc
Outline: as §1

[33] = target: Gal(b1-3)[Neu5Ac(a2-6)]GlcNAc(b1-4)Gal(b1-4)Glc
Outline: as §1

[34] = target: Gal(b1-3)[Neu5Ac(b2-6)]GalNAc
Outline: as §1

Gal(b1-4)Gal = target: Gal(b1-4)Gal
Outline: as §1

[35] = target: Gal(b1-4)GalNAc(a1-3)[Fuc(a1-2)]Gal(b1-4)GlcNAc
Outline: as §1

[36] = target: Gal(b1-4)GalNAc(b1-3)[Fuc(a1-2)]Gal(b1-4)GlcNAc
Outline: as §1

B1: GS13599A-bth-520-23-520 (Bacteroides thetaiotaomicron) (protein)
chain: SEDTMDRINKDHDHTTSVASRFILADVITSTAFSNASGDINTYASSYIEYEVGVDNQLYYAEVRENEPSSSSTFNNSWNGIYSSLKNARIIIDQCGEGGRDHGNDVTRGMAEVMAAYNCALIADFFGDAPCSQAALVDEKGSPVYMTPKMDTQQEIYTQIISYLDDAIANLQKEDLADVTEQDFLYAGDADKWLKFAYGLKARYTMRLINRSSNKSADYEKVLDYVSKSFTSADDQAAFDIYDSNNINPFYGFYNSRAGFGASTSLGTKLLAYNDPRANRAFFTPIVDKKRSQVAANDPSLVPAPNGSPDQSTSKYGISAFVYAKTAPTLLMSYHELMFLKAEALCRLNRDAEDALKEAVVAGLLNAENSISIAIKELGSGLNTNSSEVITETSAGKYFDDVVKAKYAANPLQETMIQKYLAMWGASGEATETYNDFRRMKGLNENFITLTNPNNSSKFPLRYPYGNSDTAANPEVKAAYGNGDYVYSEPVWWAGGSR
- glycan array binding signal (z-score) (Gal(b1-2)Gal): 0.033
- glycan array binding signal (z-score) (Gal(b1-3)Gal): -1.44
- glycan array binding signal (z-score) (Gal(b1-3)Gal(b1-4)GlcNAc): 1.59
- glycan array binding signal (z-score) (Gal(b1-3)GalNAc): -0.399
- glycan array binding signal (z-score) [1]: 0.256
- glycan array binding signal (z-score) [2]: -0.813
- glycan array binding signal (z-score) (Gal(b1-3)GalNAc(b1-3)Gal): 0.596
- glycan array binding signal (z-score) [3]: -0.746
- glycan array binding signal (z-score) [4]: 0.841
- glycan array binding signal (z-score) [5]: 1.48
- glycan array binding signal (z-score) (Gal(b1-3)GlcNAc): 0.238
- glycan array binding signal (z-score) [6]: 0.206
- glycan array binding signal (z-score) [7]: -0.858
- glycan array binding signal (z-score) (Gal(b1-3)GlcNAc(b1-2)Man): 0.604
- glycan array binding signal (z-score) [8]: -0.213
- glycan array binding signal (z-score) [9]: -0.333
- glycan array binding signal (z-score) [10]: 0.198
- glycan array binding signal (z-score) [11]: 0.978
- glycan array binding signal (z-score) [12]: 1.33
- glycan array binding signal (z-score) [13]: -0.42
- glycan array binding signal (z-score) [14]: -1.19
- glycan array binding signal (z-score) [15]: -0.152
- glycan array binding signal (z-score) [16]: 2.93
- glycan array binding signal (z-score) [17]: 2
- glycan array binding signal (z-score) [18]: 1.25
- glycan array binding signal (z-score) [19]: -0.913
- glycan array binding signal (z-score) [20]: -0.372
- glycan array binding signal (z-score) [21]: 0.574
- glycan array binding signal (z-score) [22]: 0.064
- glycan array binding signal (z-score) [23]: -1.17
- glycan array binding signal (z-score) [24]: 0.939
- glycan array binding signal (z-score) (Gal(b1-3)GlcNAc6S): -1.62
- glycan array binding signal (z-score) [25]: -1.13
- glycan array binding signal (z-score) [26]: 1.63
- glycan array binding signal (z-score) [27]: 1.15
- glycan array binding signal (z-score) [28]: -0.817
- glycan array binding signal (z-score) [29]: -1.14
- glycan array binding signal (z-score) [30]: 0.415
- glycan array binding signal (z-score) [31]: 0.012
- glycan array binding signal (z-score) [32]: -0.318
- glycan array binding signal (z-score) [33]: 1.15
- glycan array binding signal (z-score) [34]: -0.564
- glycan array binding signal (z-score) (Gal(b1-4)Gal): 0.211
- glycan array binding signal (z-score) [35]: -1.21
- glycan array binding signal (z-score) [36]: -1.09
